The results in this text go back to publication PMC5082905, “Identification of Residues in the Lipopolysaccharide ABC Transporter That Coordinate ATPase Activity with Extractor Function” (mBio, 2016).

Numbering of substitutions follows the chain as printed. Names and notes keep the numbering of the source. No constants are given. Whether binding was seen depends on the method and setting. Some results given as binding are weak or reduced against the parent protein; the word gives no strength.

The target of one test is T1, LptF (E. coli) (UniProt P0AF98).
T1 sequence: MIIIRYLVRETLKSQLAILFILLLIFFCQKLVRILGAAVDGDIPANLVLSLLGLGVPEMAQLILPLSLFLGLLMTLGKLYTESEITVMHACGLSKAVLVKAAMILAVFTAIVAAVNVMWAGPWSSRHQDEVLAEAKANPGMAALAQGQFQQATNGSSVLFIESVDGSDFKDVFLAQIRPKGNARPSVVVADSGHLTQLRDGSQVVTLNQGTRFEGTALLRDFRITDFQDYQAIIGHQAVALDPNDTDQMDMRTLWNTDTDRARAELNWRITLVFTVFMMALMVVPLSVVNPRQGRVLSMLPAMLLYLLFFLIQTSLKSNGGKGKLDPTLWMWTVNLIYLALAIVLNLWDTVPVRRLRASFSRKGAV
In words: affinity co-purification; LptB2FG-LptC-His7 complex variants purified from E. coli through LptC-His7; Coomassie blue-stained denaturing gel.

Another test deals with T2, LptG (E. coli) (UniProt P0ADC6).
T2 sequence: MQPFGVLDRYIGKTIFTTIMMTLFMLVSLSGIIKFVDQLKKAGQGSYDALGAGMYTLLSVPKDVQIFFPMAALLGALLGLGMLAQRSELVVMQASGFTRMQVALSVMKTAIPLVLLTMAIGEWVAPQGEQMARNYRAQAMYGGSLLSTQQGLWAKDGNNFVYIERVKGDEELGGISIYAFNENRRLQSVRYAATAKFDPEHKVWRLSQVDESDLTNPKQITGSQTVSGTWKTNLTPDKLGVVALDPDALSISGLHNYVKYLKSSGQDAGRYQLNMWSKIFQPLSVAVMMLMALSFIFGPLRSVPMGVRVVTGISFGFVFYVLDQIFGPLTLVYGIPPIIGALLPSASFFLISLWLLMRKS
The test is described as above.

B1: LptB^WT (enzyme, E. coli, UniProt P0A9V1 1-241, looked up)
chain: MATLTAKNLAKAYKGRRVVEDVSLTVNSGEIVGLLGPNGAGKTTTFYMVVGIVPRDAGNIIIDDDDISLLPLHARARRGIGYLPQEASIFRRLSVYDNLMAVLQIRDDLSAEQREDRANELMEEFHIEHLRDSMGQSLSGGERRRVEIARALAANPKFILLDEPFAGVDPISVIDIKRIIEHLRDSGLGVLITDHNVRETLAVCERAYIVSQGHLIAHGTPTEILQDEHVKRVYLGEDFRL
As for B1, the binding result with LptF (E. coli) and with LptG (E. coli) was “binds” each time.

B2: LptB^R91S (enzyme, UniProt P0A9V1 1-241)
chain: B1 chain with R91S
For the molecule B2, the binding entry with LptF (E. coli) and with LptG (E. coli) was “binds” each time.
